No constants are given. Whether binding was seen depends on the method and setting. In cells and extracts the contact can be indirect.
Biological target: myc-NRAS^G12V (human) (UniProt P01111)
Assay: co-IP; 293T lysates (50 mM Tris pH 8.0, 100 mM NaCl, 0.5 mM EDTA, 1% Triton X-100); myc-RAS precipitated with α-myc on Dynabeads Protein G, PIP5K1A-V5 detected by α-V5 immunoblot

By UniProt entry, the sequences of proteins in these tests, tags left out. Where a name states a change or a piece, a line headed by the entry shows the natural chain unless it says otherwise. Chains listed by the source or under a name are the forms on record and can include a tag or linker.
myc-NRAS^G12V (P01111, form named): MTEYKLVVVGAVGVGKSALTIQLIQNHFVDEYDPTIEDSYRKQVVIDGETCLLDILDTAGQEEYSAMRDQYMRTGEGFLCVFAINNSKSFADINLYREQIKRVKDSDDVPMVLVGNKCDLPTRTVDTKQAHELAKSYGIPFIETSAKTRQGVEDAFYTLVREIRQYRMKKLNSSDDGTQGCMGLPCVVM
UniProt Q99755: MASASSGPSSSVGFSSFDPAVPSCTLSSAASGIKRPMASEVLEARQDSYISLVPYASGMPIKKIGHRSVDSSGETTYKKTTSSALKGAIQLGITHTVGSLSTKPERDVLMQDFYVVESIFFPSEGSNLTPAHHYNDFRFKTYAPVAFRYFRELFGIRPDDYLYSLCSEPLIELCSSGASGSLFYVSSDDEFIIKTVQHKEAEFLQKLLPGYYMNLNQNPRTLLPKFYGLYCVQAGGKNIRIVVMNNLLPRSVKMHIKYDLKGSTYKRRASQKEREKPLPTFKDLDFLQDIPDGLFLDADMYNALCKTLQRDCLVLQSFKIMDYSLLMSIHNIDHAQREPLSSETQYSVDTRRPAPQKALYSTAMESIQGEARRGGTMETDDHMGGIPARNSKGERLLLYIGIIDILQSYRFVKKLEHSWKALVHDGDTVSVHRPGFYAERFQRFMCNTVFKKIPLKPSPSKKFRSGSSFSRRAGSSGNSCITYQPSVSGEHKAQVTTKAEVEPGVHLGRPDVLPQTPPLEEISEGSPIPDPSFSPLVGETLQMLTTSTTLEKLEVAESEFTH

binding: no binding
Substance: PIP5K1A-V5 (from UniProt Q99755 1-562)

Source: article PMC6128905
